For two molecules, binding results are on record in publication PMC12706077.

Protein sequences, listed by entry. Tags and fused reporters are not part of them. Lines headed by an entry give the natural chain unless they say otherwise; changes in a name come on top. Residues count along the entry.
UniProt P01024, residues 23-1663: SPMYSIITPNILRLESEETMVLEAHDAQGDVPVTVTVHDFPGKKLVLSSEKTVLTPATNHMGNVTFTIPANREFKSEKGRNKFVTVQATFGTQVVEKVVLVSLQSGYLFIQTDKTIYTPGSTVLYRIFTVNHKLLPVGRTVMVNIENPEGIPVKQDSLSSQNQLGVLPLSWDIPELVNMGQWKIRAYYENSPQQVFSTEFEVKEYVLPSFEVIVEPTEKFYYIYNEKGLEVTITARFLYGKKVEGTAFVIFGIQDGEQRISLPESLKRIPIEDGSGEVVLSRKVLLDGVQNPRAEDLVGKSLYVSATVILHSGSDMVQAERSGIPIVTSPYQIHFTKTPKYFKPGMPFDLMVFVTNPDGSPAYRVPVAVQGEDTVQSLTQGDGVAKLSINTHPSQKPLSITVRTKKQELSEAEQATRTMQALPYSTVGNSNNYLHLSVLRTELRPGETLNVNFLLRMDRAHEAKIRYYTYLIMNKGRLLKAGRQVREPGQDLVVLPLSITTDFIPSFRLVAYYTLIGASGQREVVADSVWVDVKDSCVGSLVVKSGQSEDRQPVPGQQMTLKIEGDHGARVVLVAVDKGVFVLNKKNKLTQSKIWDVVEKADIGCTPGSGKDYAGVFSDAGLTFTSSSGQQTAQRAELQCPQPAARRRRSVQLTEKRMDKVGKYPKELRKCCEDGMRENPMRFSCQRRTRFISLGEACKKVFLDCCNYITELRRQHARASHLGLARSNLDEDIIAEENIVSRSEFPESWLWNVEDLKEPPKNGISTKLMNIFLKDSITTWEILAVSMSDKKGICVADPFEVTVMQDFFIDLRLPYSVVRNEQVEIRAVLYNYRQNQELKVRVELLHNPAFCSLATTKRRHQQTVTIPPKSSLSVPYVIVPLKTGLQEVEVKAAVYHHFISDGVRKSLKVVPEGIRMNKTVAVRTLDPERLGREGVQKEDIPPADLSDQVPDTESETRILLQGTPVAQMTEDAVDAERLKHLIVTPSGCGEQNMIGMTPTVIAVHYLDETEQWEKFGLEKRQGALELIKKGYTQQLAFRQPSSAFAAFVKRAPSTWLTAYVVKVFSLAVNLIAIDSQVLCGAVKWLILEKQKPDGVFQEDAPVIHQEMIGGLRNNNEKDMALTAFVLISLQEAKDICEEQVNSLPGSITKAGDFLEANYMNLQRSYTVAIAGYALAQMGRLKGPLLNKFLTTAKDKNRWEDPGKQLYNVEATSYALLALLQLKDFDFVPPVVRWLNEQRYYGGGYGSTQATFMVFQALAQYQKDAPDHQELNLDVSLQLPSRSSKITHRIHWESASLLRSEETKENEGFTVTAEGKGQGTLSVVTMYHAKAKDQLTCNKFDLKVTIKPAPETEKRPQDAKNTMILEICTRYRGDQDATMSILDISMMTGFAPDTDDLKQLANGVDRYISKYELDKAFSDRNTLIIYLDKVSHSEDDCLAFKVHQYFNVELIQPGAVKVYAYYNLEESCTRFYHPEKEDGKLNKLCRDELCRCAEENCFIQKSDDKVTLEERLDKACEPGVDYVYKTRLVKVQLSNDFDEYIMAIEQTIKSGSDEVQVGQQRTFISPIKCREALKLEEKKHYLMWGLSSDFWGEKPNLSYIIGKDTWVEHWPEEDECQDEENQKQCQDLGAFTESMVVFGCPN
UniProt P00747: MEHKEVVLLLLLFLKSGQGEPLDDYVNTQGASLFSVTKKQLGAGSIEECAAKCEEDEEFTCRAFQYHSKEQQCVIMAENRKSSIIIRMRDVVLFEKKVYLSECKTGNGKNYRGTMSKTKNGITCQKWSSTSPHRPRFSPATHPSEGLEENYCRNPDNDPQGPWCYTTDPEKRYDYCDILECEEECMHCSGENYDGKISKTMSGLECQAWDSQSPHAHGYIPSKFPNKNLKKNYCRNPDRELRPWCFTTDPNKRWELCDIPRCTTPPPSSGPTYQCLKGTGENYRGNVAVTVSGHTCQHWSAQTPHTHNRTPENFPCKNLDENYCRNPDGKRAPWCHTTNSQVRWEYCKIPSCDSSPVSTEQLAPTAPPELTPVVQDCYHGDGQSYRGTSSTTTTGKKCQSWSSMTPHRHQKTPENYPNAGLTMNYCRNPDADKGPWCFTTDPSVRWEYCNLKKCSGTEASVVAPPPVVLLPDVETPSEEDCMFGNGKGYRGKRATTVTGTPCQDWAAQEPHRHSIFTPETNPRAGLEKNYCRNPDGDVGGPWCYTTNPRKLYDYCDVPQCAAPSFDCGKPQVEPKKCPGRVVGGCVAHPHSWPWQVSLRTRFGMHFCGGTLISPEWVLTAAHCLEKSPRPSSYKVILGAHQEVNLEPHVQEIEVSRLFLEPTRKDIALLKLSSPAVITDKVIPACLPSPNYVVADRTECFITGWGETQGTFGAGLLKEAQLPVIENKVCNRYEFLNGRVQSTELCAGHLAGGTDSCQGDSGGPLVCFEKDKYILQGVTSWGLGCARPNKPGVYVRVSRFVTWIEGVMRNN

In the test the target is complement C3, from plasma, purified by the C3-specific nanobody hC3Nb2 (human (endogenous in plasma)) (UniProt P01024). Kind of test: affinity purification with mass spectrometry; plasma C3 captured by His-tagged nanobody hC3Nb2 on NTA-Co2+ magnetic beads; pre-cleared human EDTA-plasma (4 healthy controls, 4 SLE patients) in PBS, 0.02% Tween-20; 1 h; washes with 600 mM NaCl; blank beads as negative control.

No constants are given. Whether binding was seen depends on the method and setting. Binding seen in cells or lysates may run through a third protein. Here binding means that the protein was enriched with, or labelled near, the bait; the list need not be complete.

plasminogen (PLG) (from UniProt P00747): the binding entry is reported as “binds”.

B1: nidogen-1 (NID1) (protein, UniProt P14543 29-1247)
chain: LSRQELFPFGPGQGDLELEDGDDFVSPALELSGALRFYDRSDIDAVYVTTNGIIATSEPPAKESHPGLFPPTFGAVAPFLADLDTTDGLGKVYYREDLSPSITQRAAECVHRGFPEISFQPSSAVVVTWESVAPYQGPSRDPDQKGKRNTFQAVLASSDSSSYAIFLYPEDGLQFHTTFSKKENNQVPAVVAFSQGSVGFLWKSNGAYNIFANDRESVENLAKSSNSGQQGVWVFEIGSPATTNGVVPADVILGTEDGAEYDDEDEDYDLATTRLGLEDVGTTPFSYKALRRGGADTYSVPSVLSPRRAATERPLGPPTERTRSFQLAVETFHQQHPQVIDVDEVEETGVVFSYNTDSRQTCANNRHQCSVHAECRDYATGFCCSCVAGYTGNGRQCVAEGSPQRVNGKVKGRIFVGSSQVPIVFENTDLHSYVVMNHGRSYTAISTIPETVGYSLLPLAPVGGIIGWMFAVEQDGFKNGFSITGGEFTRQAEVTFVGHPGNLVIKQRFSGIDEHGHLTIDTELEGRVPQIPFGSSVHIEPYTELYHYSTSVITSSSTREYTVTEPERDGASPSRIYTYQWRQTITFQECVHDDSRPALPSTQQLSVDSVFVLYNQEEKILRYALSNSIGPVREGSPDALQNPCYIGTHGCDTNAACRPGPRTQFTCECSIGFRGDGRTCYDIDECSEQPSVCGSHTICNNHPGTFRCECVEGYQFSDEGTCVAVVDQRPINYCETGLHNCDIPQRAQCIYTGGSSYTCSCLPGFSGDGQACQDVDECQPSRCHPDAFCYNTPGSFTCQCKPGYQGDGFRCVPGEVEKTRCQHEREHILGAAGATDPQRPIPPGLFVPECDAHGHYAPTQCHGSTGYCWCVDRDGREVEGTRTRPGMTPPCLSTVAPPIHQGPAVPTAVIPLPPGTHLLFAQTGKIERLPLEGNTMRKTEAKAFLHVPAKVIIGLAFDCVDKMVYWTDITEPSIGRASLHGGEPTTIIRQDLGSPEGIAVDHLGRNIFWTDSNLDRIEVAKLDGTQRRVLFETDLVNPRGIVTDSVRGNLYWTDWNRDNPKIETSYMDGTNRRILVQDDLGLPNGLTFDAFSSQLCWVDAGTNRAECLNPSQPSRRKALEGLQYPFAVTSYGKNLYFTDWKMNSVVALDLAISKETDAFQPHKQTRLYGITTALSQCPQGHNYCSVNNGGCTHLCLATPGSRTCRCPDNTLGVDCIEQK
Take B1: the binding entry was “binds”.
